Reference: the kinase profiling compilation of Christmann-Franck et al. (2016)

Sequences of proteins named here, by UniProt entry; tags and fusion partners are left off. A change or cut given only in a name is not applied to a line headed by its entry.
UniProt P31749: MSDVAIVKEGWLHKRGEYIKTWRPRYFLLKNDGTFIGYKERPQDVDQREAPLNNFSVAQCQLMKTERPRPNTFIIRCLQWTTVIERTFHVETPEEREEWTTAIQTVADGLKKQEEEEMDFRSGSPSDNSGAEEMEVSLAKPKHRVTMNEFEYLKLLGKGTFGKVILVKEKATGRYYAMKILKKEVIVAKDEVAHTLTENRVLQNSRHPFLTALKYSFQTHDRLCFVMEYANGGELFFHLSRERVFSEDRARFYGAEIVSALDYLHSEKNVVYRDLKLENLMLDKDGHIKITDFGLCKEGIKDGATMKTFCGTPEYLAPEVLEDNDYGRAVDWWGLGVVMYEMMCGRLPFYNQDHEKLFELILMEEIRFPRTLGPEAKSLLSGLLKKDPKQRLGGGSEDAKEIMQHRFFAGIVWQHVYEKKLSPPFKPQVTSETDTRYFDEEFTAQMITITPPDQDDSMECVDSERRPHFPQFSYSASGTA
UniProt P11362, whole entry, looked up: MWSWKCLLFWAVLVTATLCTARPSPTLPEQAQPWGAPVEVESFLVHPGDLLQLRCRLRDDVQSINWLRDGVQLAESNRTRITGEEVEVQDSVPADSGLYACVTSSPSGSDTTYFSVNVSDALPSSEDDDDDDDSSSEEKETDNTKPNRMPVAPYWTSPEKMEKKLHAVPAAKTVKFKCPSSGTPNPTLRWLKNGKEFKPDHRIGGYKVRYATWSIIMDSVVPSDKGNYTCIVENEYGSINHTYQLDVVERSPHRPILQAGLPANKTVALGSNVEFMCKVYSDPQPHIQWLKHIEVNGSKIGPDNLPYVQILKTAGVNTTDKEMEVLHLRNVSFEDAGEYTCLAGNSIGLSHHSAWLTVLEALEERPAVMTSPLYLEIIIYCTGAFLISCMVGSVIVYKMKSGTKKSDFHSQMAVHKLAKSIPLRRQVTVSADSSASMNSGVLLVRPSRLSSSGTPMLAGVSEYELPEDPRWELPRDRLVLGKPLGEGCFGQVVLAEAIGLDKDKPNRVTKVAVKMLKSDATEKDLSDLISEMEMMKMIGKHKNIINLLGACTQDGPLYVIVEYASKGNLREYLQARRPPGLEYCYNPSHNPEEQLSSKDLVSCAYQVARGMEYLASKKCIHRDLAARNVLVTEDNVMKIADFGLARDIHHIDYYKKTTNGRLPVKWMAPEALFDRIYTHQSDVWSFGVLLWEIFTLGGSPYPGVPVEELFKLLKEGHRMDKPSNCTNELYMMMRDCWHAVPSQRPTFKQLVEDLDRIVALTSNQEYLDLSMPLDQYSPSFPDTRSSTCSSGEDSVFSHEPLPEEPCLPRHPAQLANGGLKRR
UniProt P11309, whole entry, looked up: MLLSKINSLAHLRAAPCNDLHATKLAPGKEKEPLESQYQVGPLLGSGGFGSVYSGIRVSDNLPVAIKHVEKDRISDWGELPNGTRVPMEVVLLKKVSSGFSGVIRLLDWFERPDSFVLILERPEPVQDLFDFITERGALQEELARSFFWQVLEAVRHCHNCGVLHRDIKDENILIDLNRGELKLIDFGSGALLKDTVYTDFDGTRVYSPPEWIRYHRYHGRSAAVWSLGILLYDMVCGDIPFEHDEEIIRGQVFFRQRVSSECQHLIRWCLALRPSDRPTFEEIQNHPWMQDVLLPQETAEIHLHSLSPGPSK
UniProt Q13131: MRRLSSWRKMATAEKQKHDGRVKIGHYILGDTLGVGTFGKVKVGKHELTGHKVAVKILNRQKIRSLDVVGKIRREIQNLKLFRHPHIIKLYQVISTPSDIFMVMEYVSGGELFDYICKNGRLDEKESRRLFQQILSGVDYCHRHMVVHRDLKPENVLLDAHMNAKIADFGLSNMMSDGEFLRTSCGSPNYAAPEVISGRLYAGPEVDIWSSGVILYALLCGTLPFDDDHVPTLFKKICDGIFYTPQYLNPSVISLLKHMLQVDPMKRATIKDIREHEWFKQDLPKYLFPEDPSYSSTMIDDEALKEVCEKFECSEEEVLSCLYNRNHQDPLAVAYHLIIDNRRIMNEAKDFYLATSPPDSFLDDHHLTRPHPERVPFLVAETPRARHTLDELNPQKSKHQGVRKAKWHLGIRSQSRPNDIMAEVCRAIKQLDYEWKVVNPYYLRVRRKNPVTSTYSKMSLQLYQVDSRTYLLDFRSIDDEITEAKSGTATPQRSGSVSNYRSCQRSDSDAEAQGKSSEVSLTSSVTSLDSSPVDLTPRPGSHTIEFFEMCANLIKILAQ
UniProt P54646: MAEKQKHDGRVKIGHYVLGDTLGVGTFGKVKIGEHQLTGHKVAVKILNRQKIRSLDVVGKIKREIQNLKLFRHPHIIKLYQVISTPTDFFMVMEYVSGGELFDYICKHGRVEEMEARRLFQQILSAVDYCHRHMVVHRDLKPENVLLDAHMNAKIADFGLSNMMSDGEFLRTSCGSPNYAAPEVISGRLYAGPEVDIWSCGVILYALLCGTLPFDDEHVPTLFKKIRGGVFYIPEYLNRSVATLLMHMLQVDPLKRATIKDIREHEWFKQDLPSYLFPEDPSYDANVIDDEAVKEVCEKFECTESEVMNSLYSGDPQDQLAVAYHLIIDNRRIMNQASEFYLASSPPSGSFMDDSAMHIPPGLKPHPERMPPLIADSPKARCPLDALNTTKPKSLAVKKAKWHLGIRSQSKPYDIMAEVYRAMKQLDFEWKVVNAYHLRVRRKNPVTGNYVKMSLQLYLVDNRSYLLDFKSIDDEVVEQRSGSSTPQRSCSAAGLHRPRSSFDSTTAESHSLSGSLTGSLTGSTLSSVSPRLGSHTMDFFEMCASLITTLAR

How the values were obtained:
AKT1 (human) = AKT1 (human) (UniProt P31749); conditions: compound 10.0 µM
FGFR1 (human) = FGFR1 (human) (UniProt P11362); conditions: compound 10.0 µM
PIM1 (human) = PIM1 (human) (UniProt P11309); conditions: compound 10.0 µM
PRKAA1 (human) = PRKAA1 (human) (UniProt Q13131); conditions: compound 10.0 µM
PRKAA2 (human) = PRKAA2 (human) (UniProt P54646); conditions: compound 10.0 µM
PRKACA (mouse) = conditions: compound 10.0 µM; accession and sequence are those of the human protein

- inhibition (AKT1 (human)): 0%
- inhibition (FGFR1 (human)): 0%
- inhibition (PIM1 (human)): 85%
- inhibition (PRKAA1 (human)): 66%
- inhibition (PRKAA2 (human)): 71%
- inhibition (PRKACA (mouse)): 10%
Compound: O=C1NC(=O)c2c1c(-c1ccccc1)cc1[nH]c3ccc(O)cc3c21
